According to patent US20210355164A1:
No constants are given. Whether binding was seen depends on the method and setting. Some results given as binding are weak or reduced against the parent protein; the word gives no strength.

biological target: T1, ATF3 (activating transcription factor 3) protein (UniProt P18847); assay: avidin-biotin complex binding assay; plate-coated ATF3, biotin-labeled peptide 10 uM to 100 uM, absorbance at 405 nm
T1 sequence (looked up): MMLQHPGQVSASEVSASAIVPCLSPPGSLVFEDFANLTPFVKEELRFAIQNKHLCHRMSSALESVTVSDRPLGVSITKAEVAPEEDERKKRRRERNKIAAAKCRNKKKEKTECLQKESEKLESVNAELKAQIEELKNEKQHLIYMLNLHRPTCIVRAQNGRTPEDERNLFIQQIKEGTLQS

binding, binds:
VLNIPEHFTAQN (biotin-labeled with EZ-link sulfo-NHS-biotin; position of the label not stated) [ABP4 peptide (SEQ ID NO: 4), biotin-labeled]
TLGLRPVPVATT (biotin-labeled with EZ-link sulfo-NHS-biotin; position of the label not stated) [ABP3 peptide (SEQ ID NO: 3), biotin-labeled]
AESPLTNRGWNP (biotin-labeled with EZ-link sulfo-NHS-biotin; position of the label not stated) [ABP1 peptide (SEQ ID NO: 1), biotin-labeled]
MLDTNIQSRPNL (biotin-labeled with EZ-link sulfo-NHS-biotin; position of the label not stated) [ABP2 peptide (SEQ ID NO: 2), biotin-labeled]
